Some results were stated once for a whole list of compounds, not compound by compound.
Biological target: T1, cell surface-associated uPAR (Homo sapiens, UniProt Q03405)
T1 construct: After stimulation with PMA the U937 cells expressed considerable amounts of cell surface-associated uPAR; endogenous in cells; host or cells: U937 cells stimulated with PMA
Experiment: Flow cytometry: inhibition of binding of FITC-conjugated pro-uPA to cell surface-associated uPAR on PMA-stimulated U937 cells
Details: 16 ng FITC-conjugated pro-uPA, 45 min, room temperature
Method: The ability of the synthetic peptides to inhibit the uPA/-uPAR interaction was determined by means of flow cytometry on a FACScan flow cytometer (Becton-Dickinson, Heidelberg, Germany) using the human promyeloid cell line U937 as a source of cellular native uPAR (Chuchulowski et al., Fibrinolysis 6, Suppl. 4 (1992), 95-102; Magdolen et al., (1996), supra). The U937 cells were stimulated with […] phorbol-12-myristate-13-acetate (PMA) for 48 h. After stimulation with PMA the U937 cells expressed considerable amounts of cell surface-associated uPAR.
The stimulated cells were treated for 1 min at room temperature with 50 mM glycine HCl, 0.1 NaCl, pH 3.6 in order to dissociate endogenous receptor-bound uPA. Subsequently the acidic buffer was neutralized with 0.5 M HEPES-100 mM NaCl, pH 7.5. […] Before the analysis, propidium iodide, a fluorescent dye which specifically binds double-stranded DNA, was added to each sample in order to determine the viability of the analysed U937 cells. […]
For this the purified peptides were analysed by mass spectroscopy, quantified by amino acid analysis and then tested by flow cytometry according to the method described in 1.3 for their ability to inhibit the binding of fluorescent-labelled pro-uPA to the uPA receptor on U937 cells.

The chains behind the UniProt entries cited, without tags or fusion partners. Residues count along the entry.
UniProt Q03405, 23-305: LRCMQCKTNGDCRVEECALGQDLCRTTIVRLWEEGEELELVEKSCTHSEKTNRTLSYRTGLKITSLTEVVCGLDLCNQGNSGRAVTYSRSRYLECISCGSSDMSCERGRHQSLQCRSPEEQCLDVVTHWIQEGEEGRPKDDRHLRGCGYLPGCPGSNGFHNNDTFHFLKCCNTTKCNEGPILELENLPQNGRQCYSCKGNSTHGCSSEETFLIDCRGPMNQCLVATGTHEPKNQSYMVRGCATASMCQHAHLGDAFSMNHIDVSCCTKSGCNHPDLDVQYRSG

Sequence: AEPMPHSLNFSQYLWYT [clone 20 peptide]
- molar excess resulting in a 50% inhibition of the binding of uPA: 15,000 to 12,000 molar excess

Reference: patent US6528619B1, “Inhibitors for urokinase receptor” (Roche Diagnostics GmbH, priority 1997, dated 2003)
